# Some of these results come from one statement about several compounds together.
# Test system: M tuberculosis H37Rv in THP-1 macrophages
# Experiment: Ex vivo efficacy against M. tuberculosis in THP-1 macrophages
# Format: cell-based, Mycobacterium tuberculosis
row,Compound,M. tuberculosis ex vivo efficacy (% inhibition at MIC) [%]
1,"NNC(=O)c1ccncc1 [isoniazid, reference compound]",> 90
2,"CO[C@H]1/C=C/O[C@@]2(C)Oc3c(C)c(O)c4c(O)c(c(/C=N/N5CCN(C)CC5)c(O)c4c3C2=O)NC(=O)/C(C)=C\C=C\[C@H](C)[C@H](O)[C@@H](C)[C@@H](O)[C@@H](C)[C@H](OC(C)=O)[C@@H]1C [rifampin, reference compound]",> 90
